In PubChem BioAssay AID588590 (National Center for Advancing Translational Sciences (NCATS), 2011):
Several values for one entry are separate records, joined by “and”; a condition that tells them apart may be missing. Equal entries are not always repeated. The whole screen tested about 390,000 compounds, of which about 4,000 (1%) were called active. The shares of active, inactive and inconclusive entries below differ from those in the screen. Calls follow the shape of the dose curve; as a rule, active = well fitted inhibition curve with a large enough effect; inconclusive = small, poorly fitted or top-dose-only effect, or another doubt; inactive = no such curve, though single readings can be large or run the other way. A potency beside an inconclusive call is a rough fit, not a confirmed value.

The chains behind the UniProt entries cited, without tags or fusion partners. Where a name states a change or a piece, a line headed by the entry shows the natural chain unless it says otherwise.
UniProt Q9UNA4: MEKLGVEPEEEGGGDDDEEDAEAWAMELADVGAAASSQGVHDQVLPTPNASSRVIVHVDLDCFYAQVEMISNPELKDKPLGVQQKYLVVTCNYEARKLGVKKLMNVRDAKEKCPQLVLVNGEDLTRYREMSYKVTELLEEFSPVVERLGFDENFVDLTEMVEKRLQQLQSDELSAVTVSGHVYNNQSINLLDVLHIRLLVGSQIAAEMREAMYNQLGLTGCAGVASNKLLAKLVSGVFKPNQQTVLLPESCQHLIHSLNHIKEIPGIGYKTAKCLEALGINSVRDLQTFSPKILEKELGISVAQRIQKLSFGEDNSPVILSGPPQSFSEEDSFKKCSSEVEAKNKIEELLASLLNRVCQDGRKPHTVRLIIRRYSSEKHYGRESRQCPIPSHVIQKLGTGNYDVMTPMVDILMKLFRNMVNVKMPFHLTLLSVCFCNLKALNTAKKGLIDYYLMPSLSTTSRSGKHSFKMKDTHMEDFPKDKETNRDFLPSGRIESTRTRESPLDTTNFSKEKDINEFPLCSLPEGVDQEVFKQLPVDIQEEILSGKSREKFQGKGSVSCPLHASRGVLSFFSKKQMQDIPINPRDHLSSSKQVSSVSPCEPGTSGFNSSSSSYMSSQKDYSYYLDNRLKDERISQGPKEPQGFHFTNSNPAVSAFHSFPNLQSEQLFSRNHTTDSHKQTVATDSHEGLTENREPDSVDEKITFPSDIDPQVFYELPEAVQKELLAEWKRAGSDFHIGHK

molecular target: DNA polymerase iota (Homo sapiens) (UniProt Q9UNA4); test: qHTS for Inhibitors of Polymerase Iota; settings: Pol iota fluorescent replication assay, 10 min; series mostly up to 115 µM
Method in brief: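 Fluorescent replication assay read twice, at 0 min and 10 min after adding 50 nM (final) substrate. Enzyme (10 nM) and compounds were first incubated 15 min at room temperature; enzyme-free buffer wells were negative controls.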
Potency is read from the fitted curve at half-maximal effect.

| Structure (SMILES) | Potency |
| --- | --- |
| CCC1Oc2ccccc2N(CC(=O)NCc2ccccc2)C1=O (configuration not stated) | inactive |
| Cc1cccc(NS(=O)(=O)c2ccc(C)c(C(=O)OCC(=O)Nc3cc(C)on3)c2)c1 | inconclusive: 79.4 µM [inhibitor, partial curve, poor fit] |
| O=C(O)COc1c(Cl)cc(/C=C2\NC(=O)NC2=O)cc1Br | inactive |
| NNC(=O)CCc1nc2ccc(O)cc2[nH]1 | inconclusive: 39.8 µM [inhibitor, partial curve, poor fit] |
| O=C(C[n+]1ccccc1)N/N=C/c1ccc(Cl)c(Cl)c1 | inactive |
| O=[N+]([O-])c1ccc(/C=N/Nc2ncc(-c3ccccc3)cn2)cc1 | inactive |
| O=[N+]([O-])c1cccc(-c2nnc3c4ccccc4c4ccccc4n23)c1 | inconclusive: 12.6 µM [inhibitor, partial curve, poor fit] |
| O=S(=O)(NCC(c1ccco1)N1CCN(c2ccc(F)cc2)CC1)c1cc(F)ccc1F (configuration not stated) | inconclusive: 31.6 µM [inhibitor, partial curve] |
| CC1(C(=O)NC2CCCCCCC2)CCC(=O)N1Cc1ccco1 (configuration not stated) | inconclusive: 100 µM [inhibitor, partial curve, poor fit] |
| COc1ccc(OC)c(CCNc2nc3cc(OC)c(OC)cc3c3nc(-c4cccnc4)nn23)c1 | inactive |
| COC(=O)COc1c(/C=C\c2nc(O)c([N+](=O)[O-])c(=O)[nH]2)cccc1OC | inconclusive: 0.708 µM [inhibitor, full curve, poor fit] |
| O=[N+]([O-])c1ccc(N/N=C2/CCCCC2c2ccccn2)c([N+](=O)[O-])c1 (configuration not stated) | inconclusive: 39.8 µM [inhibitor, partial curve, poor fit] |
| CN(C)S(=O)(=O)c1cccc(C(=O)OCC(=O)Nc2sccc2C(N)=O)c1 | inconclusive: 15.8 µM [inhibitor, full curve, poor fit] |
| COc1cccc(C(=O)N2CCOCC2)c1 | inactive |
| CCOc1ccc(NC(=O)CCNS(=O)(=O)c2ccc3c(c2)CC(C)N3C(C)=O)cc1 (configuration not stated) | inactive |
| CCCCn1c(N)c(N(CCC(C)C)C(=O)c2cc(-c3ccco3)nc3ccccc23)c(=O)[nH]c1=O | inconclusive: 20 µM [inhibitor, full curve, poor fit] |
| CCCCOC(=O)C1=C(N)N2C(=O)C(C)SC2=C(C(=O)OCC)C1c1ccc(O)c(OC)c1 (configuration not stated) | inconclusive: 56.2 µM [inhibitor, partial curve, poor fit] |
| COc1ccccc1OCc1ccc(C(=O)NCc2ccco2)o1 | inconclusive: 50.1 µM [inhibitor, partial curve] |
| Cn1c(=O)c2c(-c3ccccc3)n(-c3cccc(C#N)c3)cc2n(C)c1=O | inactive |
| O=C(O)c1ccc(Nc2ncnc3scc(-c4ccccc4)c23)cc1 | inactive |
| Cc1ccc2c(c1)N(C(=O)c1ccc(F)cc1)C(C)(C)CC2(C)c1ccccc1 (configuration not stated) | inactive |
| COC(=O)c1cc(OC)c(OC)cc1NC(=O)c1ccc2c(c1)CCN2S(C)(=O)=O | inconclusive: 3.98 µM [inhibitor, full curve, poor fit] |
| O=C(c1cc(C(=O)c2ccco2)cc(C(=O)c2ccco2)c1)c1ccco1 | inconclusive: 17.8 µM [inhibitor, partial curve, poor fit] |

| Structure (SMILES) | Potency |
| --- | --- |
| O=[N+]([O-])c1c(NCCCO)cc(Sc2nc3ccccc3s2)c2nonc12 | inconclusive: 2.51 µM [inhibitor, full curve, poor fit] |
| O=C(O)c1ccccc1SC1CC(=O)N(c2ccc3c(c2)OCO3)C1=O (configuration not stated) | inconclusive: 22.4 µM [inhibitor, single point] |
| O=C(CSc1n[nH]c(=O)[nH]c1=O)Nc1ccc(C(=O)O)cc1 | inactive |
| COc1ccccc1/C=N/Nc1nncc2ccccc12 | inactive |
| CCOC(=O)C(=Cc1ccc(Br)cc1)C(=O)OCC | inconclusive: 44.7 µM [inhibitor, partial curve, poor fit] |
| CCCN(CCC)C(=O)Nc1ccc(F)cc1F | inconclusive: 70.8 µM [inhibitor, partial curve] |
| Cc1cc(NC(=O)CCN2CCC(C(N)=O)CC2)ccc1Br | inconclusive: 39.8 µM [inhibitor, single point] |
| CCOC(=O)C1CCN(CC(=O)c2c(C)n(C)c3ccc(OC)cc23)CC1 | inactive |
| Cc1c(Cc2ccccc2)c(=O)oc2c(O)c(O)ccc12 | active: 8.91 µM |
| O=C(Cn1ncc(Cl)c(Cl)c1=O)N1CCN(Cc2ccccc2)CC1 | active: 35.5 µM |
| Cc1ccc(/C=C2/SC(=S)N(C3CCCCC3)C2=O)o1 | inactive |
| COc1ccc(NC(=O)c2ccco2)cc1NC(=O)c1ccccc1 | inconclusive: 39.8 µM [inhibitor, single point] |
| CC(C)c1nn2c(=O)cc(COC(=O)c3cccc(NC(=O)CCc4ccccc4)c3)nc2s1 | inactive |
| Cn1c(=O)cc(N2CCc3ccccc32)[nH]c1=O | inconclusive: 11.2 µM [inhibitor, single point] |
| CCn1nc(C)c(CCN(C)C(=O)Nc2cc(Cl)c(OC)cc2OC)c1C | inactive |
| Cc1cccc2cc(CN(Cc3ccc(F)cc3)C(=O)N(C)C)c3nnnn3c12 | inconclusive: 100 µM [inhibitor, partial curve, poor fit] |
| COc1ccc2[nH]c(=O)cc(C(=O)O)c2c1 | inconclusive: 25.1 µM [inhibitor, partial curve, poor fit] |
| COc1ccccc1NC(=O)Cn1c(=O)n(C)c(=O)c2sc3c(c21)COC(C)(C)C3 | inconclusive: 39.8 µM [inhibitor, partial curve, poor fit] |
| CCOc1cccc(NC(=O)CSc2sc3c(O)cc(=O)[nH]c3c2C#N)c1 | inactive |
| Cc1ccc(-n2c(=O)c3c4c(sc3n3c(=S)[nH]nc23)CCC4)cc1 | inconclusive: 28.2 µM [inhibitor, partial curve, poor fit] |
| O=C1C(Nc2cccc(O)c2)=C(N2CCCCC2)C(=O)c2ccccc21 | inconclusive: 7.94 µM [inhibitor, full curve, poor fit] |
| COc1ccccc1C(=O)NNC(=O)C(=O)NC(C)C | inconclusive: 1.12 µM [inhibitor, partial curve, poor fit] |
| O=C(CCCn1c(=O)c2ccccc2n(CC(=O)NCc2ccco2)c1=O)NCc1ccco1 | inconclusive: 15.8 µM [inhibitor, full curve, poor fit] |

| Structure (SMILES) | Potency |
| --- | --- |
| COc1ccc2oc(C(=O)OCC(=O)N(C)CC(=O)Nc3ccc(F)cc3)c(C)c2c1 | inconclusive: 22.4 µM [inhibitor, partial curve, poor fit] |
| CN(C)CCCNc1c2ccccc2nc2ccccc12 | active: 8.91 µM |
| CC(C(=O)NC1CCCCC1)N1CCN(C)CC1 (configuration not stated) | inconclusive: 28.2 µM [inhibitor, single point] |
| Cc1nn(-c2ccccc2)c2c1C(=O)N(c1ccccc1)C(=O)C(C)(C)C2 | inconclusive: 100 µM [inhibitor, partial curve, poor fit] |
| Oc1ccc(C2CNCc3sccc32)cc1O (configuration not stated) | inconclusive: 12.6 µM [inhibitor, partial curve, poor fit] and inconclusive: 89.1 µM [inhibitor, single point] |
| Cc1c(N=Cc2cc(Br)cc(Br)c2O)cccc1C(=O)O | inconclusive: 112 µM [inhibitor, partial curve, poor fit] |
| COc1cc(CCNC(=O)c2ccccc2NC(=O)C2=C(C)OCCS2)cc(OC)c1OC | inconclusive: 56.2 µM [inhibitor, partial curve, poor fit] |
| O=C(COc1ccccc1)N1CCN(S(=O)(=O)c2cccs2)CC1 | inconclusive: 25.1 µM [inhibitor, partial curve, poor fit] |
| COc1ccccc1N1CCN(/N=C/C=C\c2ccccc2[N+](=O)[O-])CC1 | inconclusive: 25.1 µM [inhibitor, full curve, poor fit] |
| COCCn1c(SCC(=O)c2ccc(F)cc2)nnc1C(C)C | inconclusive: 39.8 µM [inhibitor, single point] |
| COCCn1c(C)cc(O)c(C(c2cccc(F)c2)N2CCN(c3ccccc3)CC2)c1=O (configuration not stated) | inactive |
| Cc1ccc(Nc2nc(-c3ccc(O)c(O)c3)cs2)nc1 | inconclusive: 35.5 µM [inhibitor, partial curve] |
| Cc1ccc(NC(=O)c2ccccc2NS(=O)(=O)c2ccc(F)cc2)cc1S(=O)(=O)N1CCCCC1 | inconclusive: 56.2 µM [inhibitor, partial curve, poor fit] |
| CCOc1ccc(OCC)c(-c2c(=O)n(OCc3ccc(C(C)(C)C)cc3)c3ccccc3[n+]2[O-])c1 | inconclusive: 20 µM [inhibitor, single point] |
| Cc1cc(NC(=O)CN2CCN(C)CC2)no1 | inactive |
| CCc1cccc(OCCCCNCCO)c1 | inconclusive: 31.6 µM [inhibitor, single point] |
| CCc1nnc2c(Nc3cc(OC)c(Cl)cc3OC)nc3ccccc3n12 | inactive |
| CN1C(=O)C(C)(C)c2cc(S(=O)(=O)NCC(=O)NCc3ccccc3)ccc21 | inconclusive: 25.1 µM [inhibitor, partial curve, poor fit] |
| Cc1ccc(OC(C)C(=O)N2CCN(CCc3ccccn3)CC2)cc1C (configuration not stated) | inactive |
| C=C(C)C(=O)Nc1cccc(C(C)=O)c1 | inconclusive: 28.2 µM [inhibitor, full curve, poor fit] |
| CC(/C=N/n1c(-c2ccc(Cl)cc2)n[nH]c1=S)=C\c1ccco1 | inconclusive: 35.5 µM [inhibitor, full curve, poor fit] |

A portion from the list above, as a working copy:

| Structure (SMILES) | Potency |
| --- | --- |
| COC(=O)c1cc(OC)c(OC)cc1NC(=O)c1ccc2c(c1)CCN2S(C)(=O)=O | inconclusive: 3.98 µM [inhibitor, full curve, poor fit] |
| O=C(c1cc(C(=O)c2ccco2)cc(C(=O)c2ccco2)c1)c1ccco1 | inconclusive: 17.8 µM [inhibitor, partial curve, poor fit] |
| O=[N+]([O-])c1c(NCCCO)cc(Sc2nc3ccccc3s2)c2nonc12 | inconclusive: 2.51 µM [inhibitor, full curve, poor fit] |
| O=C(O)c1ccccc1SC1CC(=O)N(c2ccc3c(c2)OCO3)C1=O (configuration not stated) | inconclusive: 22.4 µM [inhibitor, single point] |
| O=C(CSc1n[nH]c(=O)[nH]c1=O)Nc1ccc(C(=O)O)cc1 | inactive |
| COc1ccccc1/C=N/Nc1nncc2ccccc12 | inactive |
| CCOC(=O)C(=Cc1ccc(Br)cc1)C(=O)OCC | inconclusive: 44.7 µM [inhibitor, partial curve, poor fit] |
| CCCN(CCC)C(=O)Nc1ccc(F)cc1F | inconclusive: 70.8 µM [inhibitor, partial curve] |
| Cc1cc(NC(=O)CCN2CCC(C(N)=O)CC2)ccc1Br | inconclusive: 39.8 µM [inhibitor, single point] |
| CCOC(=O)C1CCN(CC(=O)c2c(C)n(C)c3ccc(OC)cc23)CC1 | inactive |
| Cc1c(Cc2ccccc2)c(=O)oc2c(O)c(O)ccc12 | active: 8.91 µM |
| O=C(Cn1ncc(Cl)c(Cl)c1=O)N1CCN(Cc2ccccc2)CC1 | active: 35.5 µM |
| Cc1ccc(/C=C2/SC(=S)N(C3CCCCC3)C2=O)o1 | inactive |
